## Percent effect of library compounds

From ChEMBL document CHEMBL3988442, “University of Dundee, Small-Polar-MMV Screening Library” (2021).

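Phenotypic screen: M. tuberculosis growth, glucose 7H9 medium, 3 days; the read-out is not stated. Tested at 50 µM. The record gives no direction; compounds that gave an IC50 in retests scored well above the rest, so higher reads as more growth inhibition. Of about 69,000 compounds tested this way, about 760 (1.1%) reached 50% or more in at least one test.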

Values are the deposited “Percent Effect”, in %. The record does not define 0% and 100%; most values in the screen are far below 50% and negative numbers occur (in some assays of this library far below -100). The compounds are a random part of those screened. Two or more numbers in one place are separate tests of the same structure; such repeats can differ widely.

structure | effect
O=C(O)C(F)(F)F.[H][C@@]12CCN(S(=O)(=O)c3ccccc3)C[C@]1([H])[C@@H](CN(C)C)OC2 | -9.869%
CC(C)N(C(=O)Cn1cc(Cl)cn1)c1ccccc1 | -8.273%
COc1ccc2c(c1)CC(NCc1cccc(CO)c1)CC2 (centres unmarked) | 0.03159%
CN(C)S(=O)(=O)NCc1nn(CCN2CCCC2)c(=O)c2ccccc12 | -7.474%
CN(C)C(=O)C1CCN(c2cncc(-n3cccn3)n2)CC1 | -7.847% & -39.2%
CCOC(=O)c1nc(CN2CCN(C(=O)NC3CCCCC3)CC2)cs1 | 4.104%
Cc1ccc(CC(=O)N2CCCC(c3ccn[nH]3)C2)cn1 (centres unmarked) | -3.757%
COCCN1Cc2ccccc2C2(CCN(S(C)(=O)=O)CC2)C1 | 18.77%
Cc1nn(C)c(C)c1OCC(=O)N1CCCc2c(F)ccc(F)c21 | -14.21% & 9.241%
CCc1cnc(C(C)NC(=O)N2CCCN(CC(F)F)CC2)s1 (centres unmarked) | 36.64%
Cc1nc(-c2cccc(C(=O)O)c2)cc(C2CCN(C(C)C)C2)n1 (centres unmarked) | 71.78%
CCC(CNC(C)=O)(OC)c1ccccc1 (centres unmarked) | 27.6% & 1.884%
CCn1nc(C)c2nn(CC(=O)NC3CCSCC3)cc21 | 12.43%
CCCc1cc(C(=O)Nc2nc(SC)ns2)n(C)n1 | 34.88%
CS(=O)(=O)Cc1nc(CN2CC=C(c3ccccc3)CC2)cs1 | -10.39%
O=C(O)CCNC(=O)N1CCc2c([nH]c3ccc(Cl)cc23)C1 | -18.66%
O=C(O)[C@H]1CN(Cc2ccccc2)C[C@@H]1C(=O)c1ccccc1 | -17.03%
Cc1ccc(C(=O)NC2CCCN(C)C2)c(=O)[nH]1 (centres unmarked) | 12.5%
COc1c(CNC2CCCN(c3ncccn3)C2)c(C(C)C)nn1C (centres unmarked) | -45.29%
Cc1noc(Cl)c1CC(=O)N1CCCC1Cn1cccn1 (centres unmarked) | 17.6%
Cl.Cn1cc(CN2CCN(CC3(c4ccccc4)CC3)CC2)cn1 | -3.709%
COCCN(Cc1ccoc1)C(=O)c1c(F)cccc1Cl | 19.47%
Cc1ccc(NC(=O)CC2NC(N3CCc4ccccc43)=NC2=O)cc1 (centres unmarked) | -14.54% & 2.794%
Cc1cccc2cc(C(=O)N3CCSCC3)n(C)c12 | 45.77%
CCn1ncc(S(=O)(=O)N[C@@H]2CC[C@@H](n3ccnc3)[C@@H]2O)c1C | -1.502%
[H][C@@]12CCN(c3ncccn3)C[C@]1([H])[C@@H](CNC(=O)c1ccnnc1)OC2 | -1.153% & -8.639%
COc1ccccc1CNC(=O)C(C)n1cc2c(n1)c(C)nn2C (centres unmarked) | 16.91%
Cc1nc(C(=O)N2CC[C@@]3(C[C@@H](NS(C)(=O)=O)CCO3)C2)cs1 | 3.557%
O=C(c1cc(-c2ccc(O)cc2)n[nH]1)N1CCCC1c1cccnc1 (centres unmarked) | 15.43%
CN(C)C[C@H]1C[C@H](CO)CN(C(=O)c2cc(S(N)(=O)=O)ccc2F)C1 | -14.18%
CCc1noc(C(C)N(C)Cc2ccc(OC)c(OC)c2)n1 (centres unmarked) | -17.35% & 8.743%
CCc1c(C(=O)NC2CCS(=O)(=O)C2)cnn1-c1ccc(F)cc1 (centres unmarked) | 11.84%
CN(Cc1nc(N)nc(N(C)C)n1)Cc1cccc2ccccc12 | -12.43%
CCn1c(C2CCN(C(=O)c3cc(C4CC4)on3)CC2)nn(C)c1=O | 13.85%
CCC(C)n1c(SCC(=O)N2CCOCC2)nc2cc(C)[nH]c2c1=O (centres unmarked) | -40.8%
Cc1nc(C)n(CC2CCCN2Cc2nc(-c3ccsc3)no2)n1 (centres unmarked) | 0.7531%
CC(Sc1nnnn1C1CCOCC1)C(=O)NC1CCCCC1 (centres unmarked) | 9.33%
c1ccc(-c2nc(CNCCn3cccn3)cs2)nc1 | 1.701% & -36.07%
CS(=O)(=O)c1nnc(NC(=O)CCc2cc(F)ccc2F)[nH]1 | -16.63%
CCNC(=O)c1nnc2ccc(N3CCOCC3)cc2n1 | -13.19%
COc1ccc(C)c2c1N(C(=O)c1ccc3nnc(C)n3c1)CCC2 | 0.1813%
CO[C@H]1CN(c2ccccc2)S(=O)(=O)[C@@]12CCN(Cc1ccccc1)C2 | -13.77%
CNC(=O)c1cccnc1NCc1ccc(Cn2ccnc2)cc1 | 28.29% & 14.23%
CCc1nnc(CN(C)c2cc(C)nc3c(C)c(C)nn23)o1 | 19.01% & 7.167%
Cc1cccc(C2(O)CCN(C(=O)c3ccc(N(C)C)cc3)CC2)c1C | -9.287% & 6.951%
[H][C@@]12C[C@H](C(=O)Nc3cccnc3)[C@@]([H])(CN(Cc3ccc(F)cc3)C1)O2 | 44.85%
Cc1cc(C)n(Cc2cccc(C(=O)N3CCOCC3(C)C)c2)n1 | 16.2%
O=C(O)[C@@H]1CN(C2CCCCC2)C[C@H]1C1CC1 | 33.34% & 1.968%
Cn1ncc2c1NC(=O)CC2c1cc2c(cc1Cl)OCO2 (centres unmarked) | 23.45%
CCc1nnc2n1CCN(C(=O)CN(C)C1CC1)C2 | -29.05%
CCN1CCN(Cc2nc(C)no2)CC1 | -5.698% & -31.13%
CCOc1ccc(Br)cc1S(=O)(=O)N(CC)Cc1ccc(N(C)C)cc1 | 1.341%
CNc1ncc2c(n1)CN(C1CC(C)(C)NC(C)(C)C1)C2=O | 22.08%
CN1CCC(NC(=O)Nc2cnn(-c3ccccc3Cl)c2)C1=O (centres unmarked) | 18.77%
Cn1cc(CN2CC[C@H](O)[C@@H]2Cc2ccccc2)cn1.O=C(O)C(F)(F)F | -16.72%
Cc1nc(N(C)C)nc(-c2cccc(-c3ccn(CCCF)n3)c2)c1C | 31.54%
COCCN1CCC(CNC(=O)C2(c3ccc(Br)cc3)CCCC2)C1 (centres unmarked) | 11.8%
COc1cc(Cl)c(C)cc1-n1nnc(C(=O)O)c1-c1ccncc1 | -16.23%

Repeated from the top, 3 entries:

structure,effect
O=C(O)C(F)(F)F.[H][C@@]12CCN(S(=O)(=O)c3ccccc3)C[C@]1([H])[C@@H](CN(C)C)OC2,-9.869%
CC(C)N(C(=O)Cn1cc(Cl)cn1)c1ccccc1,-8.273%
COc1ccc2c(c1)CC(NCc1cccc(CO)c1)CC2 (centres unmarked),0.03159%